Measurements reported in PubChem BioAssay AID1259425 (University of Nebraska Medical Center, 2018).

Test: 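Find knockdowns that reproduce the gene expression pattern seen when KSR1 is lost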 (primary screen)
Cells: HCT116 human colon cancer cells
Reagent: siRNA pool against human genes, 50 nM siRNA
Read-out: 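mRNA of six signature genes measured together by branched-DNA assay after 50 nM siRNA pool, blank removed, divided by geometric mean of two housekeeping genes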
Scale: BNIP3L mRNA: higher = more BNIP3L transcript after knockdown; NDRG1 mRNA: higher = more NDRG1 transcript after knockdown; BNIP3 mRNA: higher = more BNIP3 transcript after knockdown; ALDOC mRNA: higher = more ALDOC transcript after knockdown; ACSL5 mRNA: higher = more ACSL5 transcript after knockdown
This is an unselected part of about 14,000 deposited reagents. Some reagents were tested in more than one well and are listed for each. Not given: the time to read-out.

BNIP3L mRNA, set 1	NDRG1 mRNA, set 1	BNIP3 mRNA, set 1	ALDOC mRNA, set 1	ACSL5 mRNA, set 1	gene
0.0686	0.161	0.283	0.016	0.16	COX6A1 (cytochrome c oxidase subunit 6A1)
0.137	0.241	0.211	0.0472	0.0936	SPAG11B (sperm associated antigen 11B)
0.186	0.458	0.536	0.0391	0.346	EXOSC2 (exosome component 2)
0.173	0.641	0.365	0.0399	0.614	CLDND1 (claudin domain containing 1)
0.118	0.171	0.303	0.0196	0.221	PNPLA3
0.0774	0.14	0.261	0.0437	0.115	ACKR1 (atypical chemokine receptor 1 (Duffy blood group))
0.158	0.218	0.32	0.0207	0.229	THOC5 (THO complex subunit 5)
0.118	0.142	0.291	0.0246	0.15	SCAF11 (SR-related CTD associated factor 11)
0.16	0.134	0.223	0.0611	0.197	POF1B (POF1B actin binding protein)
0.0737	0.13	0.196	0.0129	0.111	MS4A8 (membrane spanning 4-domains A8)
0.0697	0.298	0.319	0.0187	0.0961	THG1L (tRNA-histidine guanylyltransferase 1 like)
0.0632	0.106	0.272	0.0329	0.143	TNR (tenascin R)
0.108	0.474	0.396	0.0698	0.359	DERL1 (derlin 1)
0.18	0.138	0.358	0.0301	0.0615	KCNG1
0.105	0.0325	0.358	0.0136	0.0338	POLR3D (RNA polymerase III subunit D)
0.136	0.463	0.489	0.0349	0.167	NPY4R (neuropeptide Y receptor Y4)
0.142	0.0395	0.279	0.0035	0.174	CDC7 (cell division cycle 7)
0.188	0.221	0.35	0.0257	0.318	ALKBH5 (alkB homolog 5, RNA demethylase)
0.0765	0.0702	0.272	0.00739	0.119	KCNJ8 (potassium inwardly rectifying channel subfamily J member 8)
0.27	0.931	0.512	0.0448	0.292	PRY (PTPN13 like Y-linked)
0.0931	0.331	0.219	0.0201	0.137	RIMS3 (regulating synaptic membrane exocytosis 3)
0.0853	0.485	0.279	0.0445	0.331	MYO9A (myosin IXA)
0.0732	0.116	0.237	0.0206	0.103	CSF2RA (colony stimulating factor 2 receptor subunit alpha)
0.0752	0.119	0.248	0.0164	0.184	DUSP11 (dual specificity phosphatase 11)
0.115	0.075	0.284	0.000411	0.302	ZNF143 (zinc finger protein 143)

An excerpt from above, reduced to “ACSL5 mRNA, set 1”:
THG1L (tRNA-histidine guanylyltransferase 1 like): 0.0961
TNR (tenascin R): 0.143
DERL1 (derlin 1): 0.359
KCNG1: 0.0615
POLR3D (RNA polymerase III subunit D): 0.0338
NPY4R (neuropeptide Y receptor Y4): 0.167
CDC7 (cell division cycle 7): 0.174

The list goes on.
BNIP3L mRNA, set 1	NDRG1 mRNA, set 1	BNIP3 mRNA, set 1	ALDOC mRNA, set 1	ACSL5 mRNA, set 1	gene
0.13	0.528	0.431	0.0128	0.188	NMNAT1 (nicotinamide nucleotide adenylyltransferase 1)
0.0642	0.106	0.235	0.0133	0.0772	FABP3 (fatty acid binding protein 3)
0.0628	0.0893	0.343	0.0169	0.126	SCAMP3
0.129	0.155	0.177	0.0138	0.272	HUNK (hormonally up-regulated Neu-associated kinase)
0.0725	0.261	0.308	0.027	0.123	CTPS1 (CTP synthase 1)
0.141	1.13	0.321	0.0196	0.383	KCNC4 (potassium voltage-gated channel subfamily C member 4)
0.107	0.509	0.317	0.0287	0.215	UGGT1 (UDP-glucose glycoprotein glucosyltransferase 1)
0.0773	0.249	0.354	0.0072	0.181	FOXF2 (forkhead box F2)
0.117	0.107	0.267	0.018	0.18	EXOC2 (exocyst complex component 2)
0.159	0.161	0.729	0.02	0.201	TNNI3K (TNNI3 interacting kinase)
0.111	0.23	0.209	0.0185	0.223	HMGCL (3-hydroxy-3-methylglutaryl-CoA lyase)
0.389	0.303	0.21	0.128	0.26	ZNF322 (zinc finger protein 322)
0.193	0.772	0.459	0.0552	0.203	THTPA (thiamine triphosphatase)
0.0506	0.216	0.268	0.0275	0.168	GALNT2 (polypeptide N-acetylgalactosaminyltransferase 2)
0.0987	0.264	0.252	0.00699	0.331	AVEN (apoptosis and caspase activation inhibitor)
0.191	0.215	0.321	0.0367	0.067	ZNF79 (zinc finger protein 79)
0.0668	0.0669	0.235	0.0187	0.0694	PDE4B (phosphodiesterase 4B)
0.074	0.171	0.237	0.0115	0.114	RARB (retinoic acid receptor beta)
0.137	0.237	0.283	0.0276	0.167	RARB (retinoic acid receptor beta)
0.128	0.445	0.36	0.023	0.118	RTRAF (RNA transcription, translation and transport factor)
0.0769	0.0761	0.262	0.0225	0.0794	H1-3 (H1.3 linker histone, cluster member)
0.116	0.138	0.333	0.00555	0.13	STRAP (serine/threonine kinase receptor associated protein)
0.0537	0.17	0.204	0.0169	0.165	SEC63 (SEC63 protein translocation regulator)
0.123	0.153	0.308	0.0408	0.0955	MAP7D3 (MAP7 domain containing 3)
0.158	0.0944	0.305	0.049	0.142	GPR85 (G protein-coupled receptor 85)
0.0645	0.384	0.393	0.0602	0.205	ATAD1 (ATPase family AAA domain containing 1)
0.198	0.997	0.395	0.0546	0.273	SLC39A3
0.0946	0.107	0.254	0.0384	0.239	PIF1 (PIF1 5'-to-3' DNA helicase)
0.116	0.139	0.341	0.00815	0.119	ZNF76 (zinc finger protein 76)
0.0866	0.209	0.32	0.0171	0.211	LETM1
0.0517	0.133	0.345	0.024	0.219	REST (RE1 silencing transcription factor)
0.111	0.611	0.396	0.0215	0.166	TRMT1 (tRNA methyltransferase 1)
0.134	0.343	0.362	0.0508	0.193	ZBTB24 (zinc finger and BTB domain containing 24)
0.13	0.196	0.331	0.00748	0.228	QKI (QKI, KH domain containing RNA binding)
0.147	0.685	0.759	0.0205	0.308	CHMP2B (charged multivesicular body protein 2B)
0.0839	0.13	0.278	0.0292	0.0931	PSPN (persephin)
0.0726	0.377	0.23	0.0217	0.213	RINT1 (RAD50 interactor 1)
0.135	0.255	0.308	0.0353	0.158	PRSS12 (serine protease 12)
